Measured values reported in PubChem BioAssay AID1487 (National Center for Advancing Translational Sciences (NCATS), 2009).
The list shows a part of the results. These are further read-outs of the screen, such as a control signal, another cell line or another target. No call is given for them. Compounds called inactive in the main read-out are mostly missing here. Potencies come from curve fits of mixed quality, noted in brackets.

Assay: qHTS Assay for Modulators of Lamin A Splicing
Settings: HeLa LMNA splicing GFP/RFP minigene ratio, 48 h
In short: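 Read-out is the ratio of GFP to DsRed2 object intensity, acquired by 488 nm laser-scanning cytometry on HeLa lamin A-EGFP minigene reporter cells. Compound incubation 48 hrs at 37 °C in Opti-MEM with 2% FBS; DMSO 0.5% final.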

[1] = measured here: GFP splicing reporter channel
[2] = measured here: RFP viability control channel

| Compound | AC50 [1] | AC50 [2] |
| --- | --- | --- |
| Cc1ccc(NS(=O)(=O)c2ccc3[nH]c4c(c3c2)CCCC4)cc1N(C)C | 35.5 µM [falling, single point] | 35.5 µM [falling, single point] |
| CC(C)CC(COCc1cccc(C(F)(F)F)c1)N1CCN(C(=O)c2cccc(C(F)(F)F)c2)CCC1=O (centres undefined) | 11.2 µM [rising, partial curve] | 14.1 µM [rising, partial curve] |
| COc1ccc(OCCC(=O)OCC(=O)NCc2ccc(F)cc2)cc1 | 0.0141 µM [falling, full curve] |  |
| Cc1nc2ccn(Cc3cccs3)c(=O)c2cc1C(=O)N1CCN(c2ccccc2F)CC1 | 0.00794 µM [falling, full curve, poor fit] |  |
| O=C(NC(C(=O)N/N=C/c1c2ccccc2cc2ccccc12)c1n[nH]c(=O)c2ccccc12)c1ccccc1 (centres undefined) |  | 20 µM [rising, single point] |
| CC(C)CC(=O)CC1(O)C(=O)Nc2ccccc21 (centres undefined) | 0.00355 µM [falling, full curve] | 0.00501 µM [falling, full curve, poor fit] |
| CCOC(=O)CC(=O)CSc1nc2ccsc2c(=O)n1Cc1ccccc1 | 20 µM [rising, partial curve, poor fit] |  |
| CCOC(=O)c1sc(C)c2c1NC(C)(c1ccccc1)NC2=O (centres undefined) |  | 8.91 µM [rising, partial curve, poor fit] |
| CCSc1nnc(NC(=O)C(NC(=O)c2ccc(Cl)cc2)C(C)C)s1 (centres undefined) | 10 µM [rising, partial curve, poor fit] | 15.8 µM [rising, single point] |
| COc1ccc(C(CCNCc2ccccc2F)c2ccc(F)cc2)cc1 (centres undefined) | 35.5 µM [falling, single point] |  |
| N=c1c2c(-c3ccccc3)c(-c3ccccc3)n(Cc3ccccc3)c2ncn1CCCO | 12.6 µM [falling, partial curve] | 35.5 µM [falling, single point] |
| COc1ccc(Oc2ncnc3sccc23)cc1 |  | 3.98 µM [falling, partial curve] |
| Cn1c(=O)[nH]c(=O)c2c1nc(CN1CCN(c3cccc(Cl)c3)CC1)n2Cc1ccccc1Cl | 35.5 µM [falling, single point] | 35.5 µM [falling, single point] |
| O=C(CCC1CC(=O)Nc2ccccc21)NCc1cccnc1 (centres undefined) |  | 0.794 µM [falling, single point] |
| Cc1cc(C)nc(-n2nc(C)c3c2NC(=O)CC3c2cccc(O)c2)n1 (centres undefined) |  | 8.91 µM [rising, partial curve] |
| CCOC(=O)C(C)On1c(-c2cccc(Cl)c2)nc2ccc([N+](=O)[O-])cc21 (centres undefined) | 20 µM [rising, single point] | 31.6 µM [rising, single point] |
| COc1ccc(NC(=O)c2cc3c(s2)CCC(C)C3)cc1S(=O)(=O)N1CCOCC1 (centres undefined) |  | 3.16 µM [rising, full curve] |
| Nc1nnnn1/N=C/c1cccc(OCc2ccccc2Cl)c1 |  | 22.4 µM [rising, single point] |
| Cc1ccc(-c2cc(C(=O)NCc3cccnc3)no2)cc1 |  | 11.2 µM [rising, partial curve, poor fit] |

| Compound | AC50 [1] | AC50 [2] |
| --- | --- | --- |
| COc1cc(OC)c(NC(=O)Nc2cccc(OCc3cc(=O)n4ccccc4n3)c2)cc1Cl | 11.2 µM [falling, partial curve] | 14.1 µM [falling, partial curve] |
| C=CCn1c(SCc2ccc(C(=O)OC)cc2)nnc1-c1sc(N)nc1C | 0.0562 µM [rising, full curve, poor fit] |  |
| O=C(Nc1ccccc1)c1ccc(S(=O)(=O)NCC2CCCO2)cc1 (centres undefined) | 8.91 µM [rising, partial curve, poor fit] | 15.8 µM [rising, partial curve] |
| C=CCn1c(=S)[nH]c2scc(-c3cccs3)c2c1=O | 35.5 µM [rising, partial curve, poor fit] |  |
| O=C(OCc1cc([N+](=O)[O-])cc2c1OCOC2)c1ccc2ccccc2n1 | 35.5 µM [falling, partial curve, poor fit] |  |
| Oc1cccc(-c2nc3c4c(ncn3n2)-c2ccccc2CC42CCCC2)c1 | 20 µM [falling, partial curve] | 20 µM [falling, partial curve] |
| Cc1cc(Cl)ccc1OC(C)C(=O)NCCCCc1ccccc1 (centres undefined) |  | 20 µM [rising, single point] |
| Cc1ccc(Nc2c(-c3ccccc3)nc3cnccn23)cc1 | 0.0224 µM [falling, full curve] | 0.02 µM [falling, full curve, poor fit] |
| O=C(O)C1CCN(S(=O)(=O)c2ccc(Oc3ccccc3)cc2)CC1 | 12.6 µM [rising, single point] | 22.4 µM [rising, single point] |
| O=C(/C=C/c1ccccc1)NCCOc1ccccc1 | 1.58 µM [rising, full curve, poor fit] |  |
| CCOc1ccc(C2C(=O)N(C3CCCCC3)CC(=O)N2CC2CCCO2)cc1OC (centres undefined) |  | 6.31 µM [falling, single point] |
| O=C1c2cccc(OCC(=O)N3CCCc4ccccc43)c2CCN1Cc1ccccc1 | 35.5 µM [falling, single point] |  |
| CCOC(=O)c1cc(-c2ccccc2)n(CCC(=O)N2CCN(c3ccccc3OC)CC2)c1C | 22.4 µM [falling, single point] |  |
| COc1ccc(N2CCCn3c2nc2c3c(=O)n(Cc3ccc(C)cc3)c(=O)n2C)c(OC)c1 |  | 2.82 µM [falling, partial curve, poor fit] |
| CCN1CCC[C@H]1CNC(=O)c1cc(S(N)(=O)=O)ccc1OC | 0.00631 µM [falling, full curve, poor fit] | 0.00224 µM [falling, full curve, poor fit] |
| O=S(=O)(c1cc(Cl)ccc1Cl)n1ccnc1 |  | 0.00794 µM [falling, full curve, poor fit] |
| COc1ccccc1N1CCN(CCCNC(=O)c2cnn(-c3cccc(Cl)c3)c2C2CCN(C(=O)OC(C)(C)C)CC2)CC1 | 35.5 µM [falling, single point] |  |
| COc1cc(CNCc2c[nH]c3ccccc23)cc(OC)c1 | 0.794 µM [falling, full curve, poor fit] |  |
| O=C(Nc1ccccc1)Nc1cccc(-c2cn3cccnc3n2)c1 |  | 0.0224 µM [rising, full curve, poor fit] |

| Compound | AC50 [1] | AC50 [2] |
| --- | --- | --- |
| Cc1cc(C)n(/N=C\c2c(O)ccc3ccccc23)c(=O)c1C(N)=O |  | 35.5 µM [rising, single point] |
| CCOc1cc(/C=N/NC(N)=S)cc(Br)c1OCc1ccccc1C |  | 3.16 µM [falling, full curve, poor fit] |
| Cc1noc(C)c1-c1nc(N(C)Cc2ccco2)c2ccccc2n1 | 35.5 µM [falling, single point] | 35.5 µM [falling, single point] |
| Nc1nc(SCC(=O)Nc2ccccc2Oc2ccccc2)n[nH]1 | 0.0224 µM [rising, full curve, poor fit] |  |
| Cc1ccc2[nH]c(=O)c(CN(Cc3ccccc3)Cc3nnnn3C3CCCC3)cc2c1 | 14.1 µM [falling, single point] |  |
| CCC(C)NS(=O)(=O)c1ccc(NC(=O)C(Sc2ccccc2)c2ccccc2)cc1 (centres undefined) |  | 35.5 µM [rising, single point] |
| CC(C)(C)NC[C@H](O)COc1cccc2c1CCC(=O)N2 | 15.8 µM [rising, partial curve, poor fit] |  |
| Cn1c(=O)c(-c2ccc(Cl)cc2)nc2cnc(N3CCNCC3)nc21 | 20 µM [falling, partial curve] | 12.6 µM [falling, single point] |
| O=C(C1CCN(S(=O)(=O)N2CCOCC2)CC1)N1CCN(Cc2ccc3c(c2)OCO3)CC1 | 12.6 µM [rising, single point] | 17.8 µM [rising, single point] |
| CCCNC(=O)N1CCCC(C(N)=O)C1 (centres undefined) |  | 0.0355 µM [falling, full curve, poor fit] |
| CCOc1cc(Br)ccc1S(=O)(=O)N1CC(C)OC(C)C1 (centres undefined) |  | 35.5 µM [rising, single point] |
| Cc1cc(C)n2cc(CSc3nncn3C)nc2n1 | 0.0708 µM [falling, full curve, poor fit] |  |
| C/C(N)=C(/C#N)C(=O)CSc1nc2scc(-c3ccccc3)c2c(=O)n1C | 31.6 µM [falling, single point] |  |
| CCOc1ccc(CCNC(=O)CCCn2c(=O)c3cccn3c3ccccc32)cc1 |  | 12.6 µM [rising, partial curve] |
| CCOc1ccc2[nH]cc(S(=O)(=O)c3ccc(F)cc3)c(=O)c2c1 |  | 35.5 µM [rising, single point] |
| COC(=O)NCC(c1cccnc1)N1CCN(c2ccc(F)cc2)CC1 (centres undefined) | 14.1 µM [falling, single point] | 14.1 µM [falling, single point] |
| Cc1cc(NC(=O)COC(=O)C(Nc2ccc(C(F)(F)F)cc2Cl)C(C)C)no1 (centres undefined) | 35.5 µM [falling, single point] |  |
| O=C(NCc1ccco1)c1sc(=S)n2c1[nH]c(=O)c1ccccc12 | 0.631 µM [falling, single point] | 11.2 µM [rising, partial curve] |

Individual results from the results shown.
AC50 [1], CC(C)(C)NC[C@H](O)COc1cccc2c1CCC(=O)N2 is entered as 15.8 µM [rising, partial curve, poor fit]
AC50 [1], Cc1noc(C)c1-c1nc(N(C)Cc2ccco2)c2ccccc2n1 is entered as 35.5 µM [falling, single point]
AC50 [1], Cc1ccc2[nH]c(=O)c(CN(Cc3ccccc3)Cc3nnnn3C3CCCC3)cc2c1 is entered as 14.1 µM [falling, single point]
